Source: PubChem BioAssay AID504834 (National Center for Advancing Translational Sciences (NCATS), 2011)
The campaign covered roughly 320,000 compounds. About 22,000 (6.9%) were called active. Inconclusive results, whose numbers are uncertain, are shown with a selection of clear calls. Calls follow the shape of the dose curve; as a rule, active = well fitted inhibition curve with a large enough effect; inconclusive = small, poorly fitted or top-dose-only effect, or another doubt; inactive = no such curve, though single readings can be large or run the other way. Potencies of inconclusive entries are doubtful fits and often do not repeat. Where a SMILES comes first, the peptide text is derived from it.

experiment: Primary qHTS for delayed death inhibitors of the malarial parasite plastid, 96 hour incubation; settings: P. falciparum luciferase reporter growth; series mostly up to 28.7 µM; activity change, negative = inhibition: at the top concentration
Method in brief: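 P. falciparum expressing integrated firefly luciferase grown in erythrocytes (2% hematocrit, 0.05% parasitemia final) with compounds for 96 hours at 37 C, 5% CO2. Growth inhibition read as loss of luminescence after adding luciferase detection reagent.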
% is scaled to controls: 0 for no effect and ±100 for the full control effect; potency is read from the fitted curve at half-maximal effect.

SMILES	Potency	activity change, negative = inhibition
Nc1nc(=S)c2ncn(C3CCCC3)c2[nH]1	inconclusive: 2.08 µM [inhibitor, full curve]	–
COCCN1CCN(Cc2cn(C)nc2-c2cccc(Cl)c2)CC1	inconclusive: 10.4 µM [inhibitor, partial curve, poor fit]	–
Cc1cccc(-c2nsc(SCC(=O)NCc3ccco3)n2)c1	–	inactive: -24.6%
COc1ccc(C(=O)NCCCn2ccnc2)cc1	–	inactive: 0%
CC(C)(C)n1nnnc1C(c1ccc(F)cc1)N1CCN(Cc2ccc3c(c2)OCO3)CC1 (centres undefined)	–	inactive: 2.75%
Cn1ncc(C(=O)Nc2ccc(Cl)cc2)c1C(F)(F)F	inconclusive: 2.94 µM [inhibitor, single point]	–
Cc1c(C#N)c(N=CN(C)C)c(C(=O)c2ccc(Br)cc2)n1-c1ccccc1	inconclusive: 16.5 µM [inhibitor, partial curve, poor fit]	–
CCCCC(=O)OCC(=O)N1N=C(c2c[nH]c3ccccc23)C(O)C1c1ccc(OC)cc1 (centres undefined)	–	inactive: -5.78%
Clc1nnc(Cl)c2c1ncn2Cc1ccccc1	inconclusive: 10.4 µM [inhibitor, partial curve, poor fit]	–
CCN(CC)CCSc1nnc2c3ccccc3n(Cc3ccccc3)c2n1	inconclusive: 3.29 µM [inhibitor, partial curve, poor fit]	–
CCC1CCc2c(n(C)c3ccccc3c2=O)O1 (centres undefined)	inconclusive: 10.4 µM [inhibitor, partial curve, poor fit]	–
CCOC(=O)C1(CC2CCCCO2)CCN(Cc2cn[nH]c2-c2cccc(F)c2)CC1 (centres undefined)	–	inactive: -25.8%
COc1cc(NC(=O)c2cc3ccccc3o2)c(OC)cc1Br	inconclusive: 6.57 µM [inhibitor, partial curve, poor fit]	–
O=C(c1ccc(CS(=O)(=O)c2ccc(Br)cc2)o1)N1CCN(c2ccccn2)CC1	inconclusive: 0.828 µM [inhibitor, full curve, poor fit]	–
COc1ccccc1N1CCN(CCN2C(=O)C3CCCCN3C2=O)CC1 (centres undefined)	inconclusive: 5.22 µM [inhibitor, partial curve]	–
COC(c1ccccc1)c1nnc(CCC(=O)N(C)CCCC2CCCC2)o1 (centres undefined)	inconclusive: 18.5 µM [inhibitor, single point]	–
CCOc1ccc(CCNC(=O)C(C)n2nc(C)c3c(C)n(-c4ccccc4)nc3c2=O)cc1 (centres undefined)	active: 13.1 µM	–
CC(C)c1nc2sc3c(c2c(=O)[nH]1)CC(C)(C)OC3	–	inactive: 26.9%
CC1CCN(S(=O)(=O)c2ccc3c(c2)N(CC(=O)NCc2cccnc2)C(=O)CS3)CC1	–	inactive: 102%
COC(=O)[C@H](Cc1ccccc1)NC(=O)[C@@H](N)CC(=O)O (H-Asp-Phe-OMe)	–	inactive: 34%
COc1ccc(C(=O)Nc2cc(OC)cc3cccnc23)cc1	–	inactive: 26.6%
COc1ccc(-n2c(Cc3cccn3C)nnc2SCC(=O)Nc2ccccc2)cc1	inconclusive: 18.5 µM [inhibitor, single point]	–
O=[N+]([O-])c1cc(C(F)(F)F)ccc1N1CCCNCC1	inconclusive: 10.4 µM [inhibitor, single point]	–

Whole records, looked up by structure.
CCOc1ccc(CCNC(=O)C(C)n2nc(C)c3c(C)n(-c4ccccc4)nc3c2=O)cc1 (centres undefined) in the list: Potency: active: 13.1 µM
COCCN1CCN(Cc2cn(C)nc2-c2cccc(Cl)c2)CC1 in the list: Potency: inconclusive: 10.4 µM [inhibitor, partial curve, poor fit]

(continued)

SMILES	Potency	activity change, negative = inhibition
O=C(Cc1ccc(S(=O)(=O)N2CCOCC2)s1)Nc1cc(C(F)(F)F)cc(C(F)(F)F)c1	inconclusive: 18.5 µM [inhibitor, single point]	–
O=C(Nc1ccccc1F)C1CCCN1S(=O)(=O)c1ccc(Cl)cc1 (centres undefined)	–	inactive: -22.7%
O=C(Cc1ccc(Cl)cc1)Nc1ccc(NC(=O)c2cccs2)cc1	inconclusive: 2.94 µM [inhibitor, single point]	–
CCOC(=O)c1ccc2[nH]c3c(c2c1)CCCC3	inconclusive: 3.7 µM [inhibitor, single point]	–
COC(=O)C(C)n1cnc2c(nnn2Cc2ccc(Cl)cc2)c1=O (centres undefined)	inconclusive: 14.7 µM [inhibitor, partial curve, poor fit]	–
CCc1nnc(NC(=O)CCC(=O)N2CCN(Cc3ccc(C)cc3C)CC2)s1	inconclusive: 9.28 µM [inhibitor, partial curve, poor fit]	–
O=Cc1c(-c2ccccc2)nc2ccccn12	active: 13.1 µM	–
COc1ccc(C)cc1S(=O)(=O)N1CCC(C(=O)N2CCN(C)CC2)CC1	inconclusive: 0.522 µM [inhibitor, full curve, poor fit]	–
COCCCNc1nc(-c2ccc(Cl)cc2)nc2ccccc12	inconclusive: 16.5 µM [inhibitor, single point]	–
Cc1ccc(S(=O)(=O)Nc2cccc(-c3ccc4nnc(C)n4n3)c2)s1	–	inactive: -16.1%
C=CCNC(=S)N1CCN(c2ccccc2Cl)CC1	inconclusive: 18.5 µM [inhibitor, single point]	–
O=C(CNC(=O)c1cc(S(=O)(=O)N2CCCCC2)ccc1N1CCOCC1)Nc1ccc(F)c(F)c1	–	inactive: 9.87%
O=C(NCCCN1CCOCC1)c1ccc(CS(=O)(=O)c2c(Cl)cccc2Cl)o1	inconclusive: 10.4 µM [inhibitor, single point]	–
Cc1ccc(S(=O)(=O)N2CCCC(C(=O)N3CCN(C)CC3)C2)cc1 (centres undefined)	inconclusive: 1.47 µM [inhibitor, partial curve]	–
COc1cccc(-n2c(SCC(=O)NCC3CCCO3)nc3c([nH]c4ccccc43)c2=O)c1 (centres undefined)	inconclusive: 18.5 µM [inhibitor, single point]	–
O=C1C2CC=CCC2C(=O)N1c1cccc(OS(=O)(=O)c2ccc3ccccc3c2)c1 (centres undefined)	active: 3.29 µM	–
Cc1nn(-c2ccccc2)c2sc(C(=O)N3CCc4ccccc4C3)cc12	inconclusive: 18.5 µM [inhibitor, single point]	–
O=C(COc1ccc2c3c(c(=O)oc2c1)CCC3)NCCCN1CCOCC1	–	inactive: 4.42%
CCN(c1ccccc1)S(=O)(=O)c1ccc2[nH]cc(C(=O)N3CCOCC3)c(=O)c2c1	inconclusive: 1.65 µM [inhibitor, partial curve, poor fit]	–
CCCc1nc2sc3c(c2c(=O)n1NC(=O)CCCl)CCCC3	inconclusive: 13.1 µM [inhibitor, partial curve, poor fit]	–
CN(CCNC(=O)C1CCC(=O)N(Cc2cccc(F)c2)C1)CCc1ccccc1 (centres undefined)	inconclusive: 11.7 µM [inhibitor, single point]	–
CCOC(=O)N1CCN(S(=O)(=O)c2ccc(C)c(C(=O)NC3CCCCC3)c2)CC1	inconclusive: 1.04 µM [inhibitor, partial curve]	–
COc1cccc(CN(C)S(=O)(=O)c2c(C)noc2C)c1OC	–	inactive: -3.54%

In the list so far, these have a Cl atom:
SMILES	Potency	activity change, negative = inhibition
COCCN1CCN(Cc2cn(C)nc2-c2cccc(Cl)c2)CC1	inconclusive: 10.4 µM [inhibitor, partial curve, poor fit]	–
Cn1ncc(C(=O)Nc2ccc(Cl)cc2)c1C(F)(F)F	inconclusive: 2.94 µM [inhibitor, single point]	–
Clc1nnc(Cl)c2c1ncn2Cc1ccccc1	inconclusive: 10.4 µM [inhibitor, partial curve, poor fit]	–
O=C(Nc1ccccc1F)C1CCCN1S(=O)(=O)c1ccc(Cl)cc1 (centres undefined)	–	inactive: -22.7%
O=C(Cc1ccc(Cl)cc1)Nc1ccc(NC(=O)c2cccs2)cc1	inconclusive: 2.94 µM [inhibitor, single point]	–
COC(=O)C(C)n1cnc2c(nnn2Cc2ccc(Cl)cc2)c1=O (centres undefined)	inconclusive: 14.7 µM [inhibitor, partial curve, poor fit]	–
COCCCNc1nc(-c2ccc(Cl)cc2)nc2ccccc12	inconclusive: 16.5 µM [inhibitor, single point]	–
C=CCNC(=S)N1CCN(c2ccccc2Cl)CC1	inconclusive: 18.5 µM [inhibitor, single point]	–
O=C(NCCCN1CCOCC1)c1ccc(CS(=O)(=O)c2c(Cl)cccc2Cl)o1	inconclusive: 10.4 µM [inhibitor, single point]	–
CCCc1nc2sc3c(c2c(=O)n1NC(=O)CCCl)CCCC3	inconclusive: 13.1 µM [inhibitor, partial curve, poor fit]	–

(further entries)

SMILES	Potency	activity change, negative = inhibition
CSc1ncc(Cl)c(C(=O)Nc2nnc(SC)s2)n1	–	inactive: 13.7%
COc1cc2c(cc1NC(=O)COC(=O)[C@@H](NC(=O)c1ccccc1F)C(C)C)oc1ccccc12	inconclusive: 16.5 µM [inhibitor, single point]	–
COC(=O)c1cc(S(=O)(=O)N2CCN(c3cccc(C)c3C)CC2)c[nH]1	–	inactive: -13.8%
Cc1ccc(NC(=O)c2cccs2)cc1NC(=O)c1cccnc1	inconclusive: 1.65 µM [inhibitor, full curve, poor fit]	–
CC(=O)[C@]1(O)CCC2C3C=C(Cl)C4=CC(=O)C5CC5[C@@]4(C)C3CC[C@]21C (some centres undefined)	inconclusive: 4.78 µM [inhibitor, partial curve, poor fit]	–
CC(C)C(NC(=O)C1CCCCC1)C(=O)NC1CCCC(C)C1C (centres undefined)	inconclusive: 1.31 µM [inhibitor, full curve]	–
CC(=O)N(CC1CCCO1)c1nnc(-c2ccccn2)s1 (centres undefined)	–	inactive: -5.88%
O=C1CSC(=S)N1/N=C/c1cc(Br)ccc1O	–	inactive: -4.29%
C/C(=N\NC(=O)c1c(Cl)c(C)nn1C)c1cccc(NC(=O)COc2ccc(Cl)cc2)c1	inconclusive: 10.4 µM [inhibitor, single point]	–
Clc1ccc(-c2nnc3sc(Cc4cccs4)nn23)c(Cl)c1	inconclusive: 11.7 µM [inhibitor, single point]	–
O=C(Nc1ccc(NC(=O)c2ccco2)cc1)c1ccco1	inconclusive: 18.5 µM [inhibitor, single point]	–
O=P(O)(COc1ccccc1)COc1ccccc1	active: 13.1 µM	–
O=C(Nc1ccc(OCC(=O)N2CCOCC2)cc1)c1cncc(Br)c1	inconclusive: 13.1 µM [inhibitor, single point]	–
CCOc1ccccc1Nc1nnc(SCC(=O)NC(=O)c2cccn2C)s1	inconclusive: 18.5 µM [inhibitor, single point]	–
COC(=O)c1cc(=O)n(Cc2ccc(F)cc2)c(=Nc2ccccc2)s1	inconclusive: 11.7 µM [inhibitor, single point]	–
COc1ccc(CCN2C(=NC(=O)C(C)C)SC3CS(=O)(=O)CC32)cc1OC (centres undefined)	–	inactive: 14%
Cc1ccc(-c2nnn(CCC(=O)NC(C)(C)C)n2)cc1	–	inactive: 5.46%
CS(=O)(=O)c1ccccc1C(=O)Nc1ccc(-c2nc3ccccc3o2)cc1	inconclusive: 18.5 µM [inhibitor, partial curve, poor fit]	–
O=C(NCc1cccc(Cl)c1)c1cccc(OC2CCN(C(=O)C3CC3)CC2)c1	inconclusive: 18.5 µM [inhibitor, single point]	–
CCOCCCNCc1cc(Br)ccc1OCc1ccccc1	inconclusive: 18.5 µM [inhibitor, single point]	–
CCOC(=O)/C(=C\c1ccc(Cl)cc1)c1nc2sc(C)c(C)c2c(=O)[nH]1	inconclusive: 10.4 µM [inhibitor, single point]	–
COc1cccc(CNS(=O)(=O)c2ccc3c(c2)NC(=O)CS3)c1	inconclusive: 10.4 µM [inhibitor, single point]	–
Cc1nc2c(-c3ccc(F)cc3)c(C)nn2c(C)c1CCC(=O)N1CCN(c2ccc(F)cc2)CC1	inconclusive: 18.5 µM [inhibitor, single point]	–
